# Results as given in PubChem BioAssay AID504327 (National Center for Advancing Translational Sciences (NCATS), 2011).
# Sequences of proteins named here, by UniProt entry; tags and fusion partners are left off.
# UniProt Q92830, whole entry, looked up: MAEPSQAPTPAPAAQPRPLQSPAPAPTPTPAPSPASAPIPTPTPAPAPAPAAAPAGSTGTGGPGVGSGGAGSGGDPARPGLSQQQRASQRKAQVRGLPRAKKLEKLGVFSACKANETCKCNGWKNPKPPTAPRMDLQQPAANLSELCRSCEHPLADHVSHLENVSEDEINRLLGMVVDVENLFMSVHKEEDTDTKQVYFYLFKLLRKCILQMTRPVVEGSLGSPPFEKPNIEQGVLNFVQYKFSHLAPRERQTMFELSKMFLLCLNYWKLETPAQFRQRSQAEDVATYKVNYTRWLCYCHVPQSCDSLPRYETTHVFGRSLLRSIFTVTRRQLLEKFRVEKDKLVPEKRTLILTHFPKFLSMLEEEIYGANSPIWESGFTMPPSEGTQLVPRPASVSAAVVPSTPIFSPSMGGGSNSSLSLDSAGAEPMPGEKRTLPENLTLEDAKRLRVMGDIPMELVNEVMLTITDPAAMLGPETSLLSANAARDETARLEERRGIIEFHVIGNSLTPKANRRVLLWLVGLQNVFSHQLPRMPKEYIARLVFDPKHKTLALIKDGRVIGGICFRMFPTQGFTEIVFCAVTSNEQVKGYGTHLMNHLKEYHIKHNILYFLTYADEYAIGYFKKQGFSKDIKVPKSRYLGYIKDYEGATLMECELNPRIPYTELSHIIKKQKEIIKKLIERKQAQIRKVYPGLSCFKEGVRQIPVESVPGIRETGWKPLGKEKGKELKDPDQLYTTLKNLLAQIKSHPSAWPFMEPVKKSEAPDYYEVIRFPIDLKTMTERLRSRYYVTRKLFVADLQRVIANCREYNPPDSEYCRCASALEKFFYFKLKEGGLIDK
# The whole screen tested about 390,000 compounds, of which about 820 (0.21%) were called active. Inconclusive means that the source gave no clear call. Such entries were picked first, then a sample of the others. Calls come from the whole dose curve; as a rule, active = well fitted inhibition curve with a large enough effect; inconclusive = small, poorly fitted or top-dose-only effect, or another doubt; inactive = no such curve, though single readings can be large or run the other way. Potencies of inconclusive entries are doubtful fits and often do not repeat.
# Target: Histone acetyltransferase KAT2A (Homo sapiens) (UniProt Q92830)
# Test: qHTS Assay for Inhibitors of GCN5L2
# Settings: GCN5L2 HAT assay, ThioGlo1 CoA-SH fluorescence; activity change, negative = inhibition: at 58.9 µM (top of the series) unless noted
# Procedure, shortened: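 GCN5L2 (20nM final) in 50mM HEPES, 0.1mM EDTA pH 7.5, 0.01% Tween-20 was preincubated 15 min at room temperature with compound, then given ThioGlo1 (50uM), H3(1-25) peptide (75uM) and acetyl-CoA (70uM); CoA-thiol fluorescence (Ex340/Em540) was read at 0 and 20 min.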
# % is set by controls: 0 for no effect and ±100 for the full control effect; potency is the fitted concentration of half-maximal effect.
SMILES,Potency,"activity change, negative = inhibition"
Cc1ccc(N2CC(C(=O)Nc3nnc(SCC(N)=O)s3)CC2=O)cc1C (stereo not drawn),"inconclusive: 28.2 µM [inhibitor, single point]",
N#CCCn1c(=O)c(-c2ccc(F)cc2)nc2cnc(Oc3cccc(Cl)c3)nc21,"inconclusive: 11.2 µM [inhibitor, partial curve, poor fit]",
COc1ccccc1CCC(=O)OCC(=O)Nc1ccc(S(N)(=O)=O)cc1,,inactive: 1.05%
Cc1ccc(N2C(=O)C3C4C=CC(CC4)C3C2=O)cc1[N+](=O)[O-] (stereo not drawn),"inconclusive: 20 µM [inhibitor, partial curve]",
COc1ccccc1NS(=O)(=O)c1cccc(C(=O)NCC(c2ccco2)N2CCCCC2)c1 (stereo not drawn),"inconclusive: 0.447 µM [inhibitor, partial curve, poor fit]",
CC(C)OCC(O)CS(=O)Cc1ccccc1 (stereo not drawn),"inconclusive: 0.398 µM [inhibitor, partial curve, poor fit]",
N#Cc1ccc(OCC(=O)Nc2cccc(S(=O)(=O)NC3=NCCCCC3)c2)cc1,"inconclusive: 35.5 µM [inhibitor, single point]",
COc1ccccc1CN(C)C(=O)COC(=O)c1cc(C)oc1C,,inactive: -1.2%
Cc1ccc(-c2cc(-c3ccccc3Cl)c(C#N)c(N)n2)o1,"inconclusive: 39.8 µM [inhibitor, single point]",
CCc1ccccc1N1C(=O)[C@@H]2Cc3ccccc3CN2C1=O,"inconclusive: 39.8 µM [inhibitor, single point]",
CC(C)(C)NCc1cc(Cl)ccc1OCc1cccs1,,inactive: -0.269%
CCc1ccccc1NC(=O)c1ccc2c(c1)CCCN2S(C)(=O)=O,"inconclusive: 7.08 µM [inhibitor, single point]",
COc1ccc2c(c1)c1c(c(=O)n(CCc3ccccc3)c(=O)n1Cc1cccc(F)c1)n2C,,inactive: 1.21%
O=C(CCN1CCOCC1)N/N=C/c1cc(Br)cc(Br)c1O,,inactive: 2.5%
COc1ccc(C(=O)C(=O)c2ccc(OCCO)cc2)cc1,,inactive: -1.43%
O=c1cc(CN2CCN(Cc3ccccc3)CC2)c2cc(O)ccc2o1,,inactive: -21.3%
COCC1CCN(C(=O)c2cc(COc3cccc4cnccc34)on2)CC1,"inconclusive: 7.08 µM [inhibitor, single point]",
Cc1nnc(SCC(=O)c2c(N)n(C)c(=O)n(C)c2=O)[nH]c1=O,,inactive: -3.04%
Cc1ccc2nc(-c3ccc(NC(=O)COc4ccc(Br)cc4Br)cc3)sc2c1,"inconclusive: 39.8 µM [inhibitor, single point]",
CC(C)C[C@H](NC(=O)N1CC(=O)Nc2ccccc21)C(=O)N[C@@H](Cc1ccccc1)C(=O)O,"inconclusive: 15.8 µM [inhibitor, partial curve]",
CCOc1ccc(NC(=S)NC(=O)/C=C/c2ccco2)cc1,"inconclusive: 3.98 µM [inhibitor, single point]",
CCOc1ccc(NC(=O)Cn2nnc(-c3nc(-c4ccncc4)no3)c2N)cc1,,inactive: 0.567%

# A section from the list above, for reference:
SMILES,Potency,"activity change, negative = inhibition"
O=C(CCN1CCOCC1)N/N=C/c1cc(Br)cc(Br)c1O,,inactive: 2.5%
COc1ccc(C(=O)C(=O)c2ccc(OCCO)cc2)cc1,,inactive: -1.43%
O=c1cc(CN2CCN(Cc3ccccc3)CC2)c2cc(O)ccc2o1,,inactive: -21.3%

# The list continues:

SMILES,Potency,"activity change, negative = inhibition"
Cc1ccc(CNS(=O)(=O)c2ccc3c(c2)n(C)c(=O)n3C)cc1,"inconclusive: 0.891 µM [inhibitor, single point]",
Cc1[nH]n(-c2ccc(F)cc2)c(=O)c1/C=N/c1sc2c(c1C#N)CCCC2,"inconclusive: 0.794 µM [inhibitor, single point]",
CCCN(CCC)C(=O)c1cc([N+](=O)[O-])cc2c1-c1ccc([N+](=O)[O-])cc1C2=C(C#N)C#N,"inconclusive: 11.2 µM [inhibitor, partial curve, poor fit]",
O=C1CCCC2=C1C(c1ccc(Br)cc1)c1c([nH]c(=S)[nH]c1=O)N2 (stereo not drawn),"inconclusive: 15.8 µM [inhibitor, partial curve, poor fit]",
CCOC(=O)C1CCN(CCC(=O)Nc2ccc(Br)c(C)c2)CC1,"inconclusive: 7.08 µM [inhibitor, single point]",
Nc1nc(SCC(=O)Nc2ccc([N+](=O)[O-])cc2)[nH]c(=O)c1NC(=O)c1ccc(Br)o1,"inconclusive: 0.891 µM [inhibitor, full curve, poor fit]",
COc1ccc(-c2oc3ccccc3c(=O)c2O)cc1OC,active: 31.6 µM,
COc1ccc2[nH]c(CN3CCC(CO)(CCOc4ccccc4)CC3)c(C)c2c1,"inconclusive: 6.31 µM [inhibitor, single point]",
CC(NC(=O)/C(C#N)=C/c1ccc(C(=O)O)cc1)c1ccccc1 (stereo not drawn),"inconclusive: 7.94 µM [inhibitor, single point]",
N=c1oc2cc(O)ccc2cc1C(=O)Nc1ccccn1,"inconclusive: 28.2 µM [inhibitor, partial curve]",
N#CCCn1c(=O)c(-c2ccccc2)nc2cnc(N3CCOCC3)nc21,,inactive: 14.3%
CC(C)c1ccc(S(=O)(=O)/N=C2/C=C(Sc3ncn[nH]3)C(=O)c3ccccc32)cc1,"inconclusive: 39.8 µM [inhibitor, partial curve, poor fit]",
COc1cccc(/C=N/Nc2ncnc3c2[nH]c2ccc(C)cc23)c1OC,,inactive: -19.8%
CC(C)(C)C(=O)Nc1ccc(C(=O)Nc2cccc(Oc3ccc(C(=O)O)c(C(=O)O)c3)c2)cc1,,inactive: -14%
CCOc1ccc(C=NNc2ccc(S(=O)(=O)Nc3ccccc3C(=O)O)cc2[N+](=O)[O-])cc1OC,"inconclusive: 25.1 µM [inhibitor, single point]",
C=CCN(c1ccc(C(=O)NCCc2ccccc2)cc1)S(C)(=O)=O,,inconclusive: -89.8% [inhibitor]
COc1ccc(NC(=O)c2cc(-c3ccco3)nc3ccccc23)cc1S(=O)(=O)N1CCOCC1,"inconclusive: 35.5 µM [inhibitor, single point]",
COc1ccc(S(=O)(=O)Nc2ccc(C)cc2)cc1OC,"inconclusive: 11.2 µM [inhibitor, partial curve]",
CC(=O)O[C@]1(C(C)=O)CC[C@H]2[C@@H]3C=CC4=CC(=O)C=C[C@]4(C)[C@H]3CC[C@@]21C,,inactive: -4.03%
CCN(CC)C(=O)C1CCN(S(=O)(=O)c2ccc3c(c2)CCCN3C(=O)C2CCC2)CC1,,inactive: -2.66%
O=C(O)CCc1nn2c3ccccc3n(Cc3ccccc3)c2nc1=O,,inactive: -4.74%
